Reference: the supplement of paper PMC7666118
The other results are listed elsewhere or left out.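 The calls were made as follows: active = dose-dependent thermal stabilisation significant by F-test of dose-response against flat model at 10% FDR; inactive = not significant.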

Chains of the proteins cited; added tags and fusions are not shown. Lines headed by an entry give the natural chain unless they say otherwise; changes in a name come on top.
UniProt P50579: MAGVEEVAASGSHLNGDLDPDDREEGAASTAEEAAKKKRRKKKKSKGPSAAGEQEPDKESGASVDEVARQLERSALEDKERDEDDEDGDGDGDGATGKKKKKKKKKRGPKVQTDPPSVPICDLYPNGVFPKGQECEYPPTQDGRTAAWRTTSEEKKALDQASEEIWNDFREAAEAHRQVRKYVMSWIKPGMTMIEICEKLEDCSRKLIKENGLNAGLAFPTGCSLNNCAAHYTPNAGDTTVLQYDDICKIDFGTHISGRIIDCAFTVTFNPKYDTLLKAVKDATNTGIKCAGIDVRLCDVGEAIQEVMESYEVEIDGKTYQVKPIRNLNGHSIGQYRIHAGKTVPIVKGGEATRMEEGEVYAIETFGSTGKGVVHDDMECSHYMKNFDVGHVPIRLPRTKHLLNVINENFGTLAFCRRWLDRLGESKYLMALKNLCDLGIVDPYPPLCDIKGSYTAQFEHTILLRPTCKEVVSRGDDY
UniProt Q9BTT4: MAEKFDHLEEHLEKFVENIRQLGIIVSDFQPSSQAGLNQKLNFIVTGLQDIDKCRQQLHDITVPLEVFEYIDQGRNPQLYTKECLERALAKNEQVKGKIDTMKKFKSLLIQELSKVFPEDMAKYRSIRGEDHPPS
UniProt O00566: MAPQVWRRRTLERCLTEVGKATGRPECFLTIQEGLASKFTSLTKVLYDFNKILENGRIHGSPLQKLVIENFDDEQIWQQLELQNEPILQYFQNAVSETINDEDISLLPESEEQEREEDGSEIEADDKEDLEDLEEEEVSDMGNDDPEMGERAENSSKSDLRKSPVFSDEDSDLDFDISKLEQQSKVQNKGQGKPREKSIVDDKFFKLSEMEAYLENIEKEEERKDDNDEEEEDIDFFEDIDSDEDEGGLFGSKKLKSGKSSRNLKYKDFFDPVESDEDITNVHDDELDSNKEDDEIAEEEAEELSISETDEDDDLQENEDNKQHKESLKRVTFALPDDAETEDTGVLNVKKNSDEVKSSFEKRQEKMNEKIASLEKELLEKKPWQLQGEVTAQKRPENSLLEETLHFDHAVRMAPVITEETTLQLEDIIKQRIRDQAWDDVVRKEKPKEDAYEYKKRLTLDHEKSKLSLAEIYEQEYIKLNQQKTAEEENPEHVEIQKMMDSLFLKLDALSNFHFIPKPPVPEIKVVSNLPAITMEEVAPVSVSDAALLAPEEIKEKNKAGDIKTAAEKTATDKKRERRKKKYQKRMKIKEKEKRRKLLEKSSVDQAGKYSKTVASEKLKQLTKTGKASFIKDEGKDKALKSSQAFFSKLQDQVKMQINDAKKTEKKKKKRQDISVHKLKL
UniProt O95396: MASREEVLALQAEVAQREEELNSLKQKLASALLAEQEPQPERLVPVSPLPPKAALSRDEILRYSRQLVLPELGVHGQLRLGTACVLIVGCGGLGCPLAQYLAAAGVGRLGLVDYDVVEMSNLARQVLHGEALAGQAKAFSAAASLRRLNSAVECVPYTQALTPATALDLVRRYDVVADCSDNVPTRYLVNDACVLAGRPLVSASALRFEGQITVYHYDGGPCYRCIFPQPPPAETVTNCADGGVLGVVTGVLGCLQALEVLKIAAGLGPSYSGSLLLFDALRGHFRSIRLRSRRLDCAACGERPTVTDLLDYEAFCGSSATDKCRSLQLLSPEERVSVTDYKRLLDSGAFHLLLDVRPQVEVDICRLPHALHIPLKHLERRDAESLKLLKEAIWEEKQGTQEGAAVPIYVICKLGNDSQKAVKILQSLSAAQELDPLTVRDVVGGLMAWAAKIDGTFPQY
UniProt Q9Y546: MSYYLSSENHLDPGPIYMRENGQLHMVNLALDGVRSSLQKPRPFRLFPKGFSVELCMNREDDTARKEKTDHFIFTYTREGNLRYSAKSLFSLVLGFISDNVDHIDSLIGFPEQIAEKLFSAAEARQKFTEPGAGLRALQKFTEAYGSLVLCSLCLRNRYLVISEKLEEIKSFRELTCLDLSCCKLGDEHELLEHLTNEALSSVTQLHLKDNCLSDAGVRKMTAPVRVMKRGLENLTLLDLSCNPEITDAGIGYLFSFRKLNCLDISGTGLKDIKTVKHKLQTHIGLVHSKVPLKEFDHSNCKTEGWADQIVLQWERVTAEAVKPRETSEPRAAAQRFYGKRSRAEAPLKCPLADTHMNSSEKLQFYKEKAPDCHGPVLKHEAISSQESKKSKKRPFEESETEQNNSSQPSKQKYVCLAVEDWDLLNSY
UniProt Q5VZF2: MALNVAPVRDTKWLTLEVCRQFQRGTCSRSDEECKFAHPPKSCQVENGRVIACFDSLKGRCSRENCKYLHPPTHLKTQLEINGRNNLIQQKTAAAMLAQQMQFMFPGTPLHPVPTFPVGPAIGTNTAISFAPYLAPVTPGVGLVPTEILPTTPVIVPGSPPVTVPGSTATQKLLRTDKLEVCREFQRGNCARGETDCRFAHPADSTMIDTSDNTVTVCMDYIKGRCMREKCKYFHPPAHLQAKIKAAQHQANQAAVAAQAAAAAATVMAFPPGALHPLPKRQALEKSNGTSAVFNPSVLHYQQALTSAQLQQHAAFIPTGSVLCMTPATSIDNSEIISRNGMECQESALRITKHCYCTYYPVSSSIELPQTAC
UniProt P62312: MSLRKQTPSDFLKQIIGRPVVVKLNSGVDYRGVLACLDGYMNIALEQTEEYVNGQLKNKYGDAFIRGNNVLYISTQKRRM
UniProt Q92614: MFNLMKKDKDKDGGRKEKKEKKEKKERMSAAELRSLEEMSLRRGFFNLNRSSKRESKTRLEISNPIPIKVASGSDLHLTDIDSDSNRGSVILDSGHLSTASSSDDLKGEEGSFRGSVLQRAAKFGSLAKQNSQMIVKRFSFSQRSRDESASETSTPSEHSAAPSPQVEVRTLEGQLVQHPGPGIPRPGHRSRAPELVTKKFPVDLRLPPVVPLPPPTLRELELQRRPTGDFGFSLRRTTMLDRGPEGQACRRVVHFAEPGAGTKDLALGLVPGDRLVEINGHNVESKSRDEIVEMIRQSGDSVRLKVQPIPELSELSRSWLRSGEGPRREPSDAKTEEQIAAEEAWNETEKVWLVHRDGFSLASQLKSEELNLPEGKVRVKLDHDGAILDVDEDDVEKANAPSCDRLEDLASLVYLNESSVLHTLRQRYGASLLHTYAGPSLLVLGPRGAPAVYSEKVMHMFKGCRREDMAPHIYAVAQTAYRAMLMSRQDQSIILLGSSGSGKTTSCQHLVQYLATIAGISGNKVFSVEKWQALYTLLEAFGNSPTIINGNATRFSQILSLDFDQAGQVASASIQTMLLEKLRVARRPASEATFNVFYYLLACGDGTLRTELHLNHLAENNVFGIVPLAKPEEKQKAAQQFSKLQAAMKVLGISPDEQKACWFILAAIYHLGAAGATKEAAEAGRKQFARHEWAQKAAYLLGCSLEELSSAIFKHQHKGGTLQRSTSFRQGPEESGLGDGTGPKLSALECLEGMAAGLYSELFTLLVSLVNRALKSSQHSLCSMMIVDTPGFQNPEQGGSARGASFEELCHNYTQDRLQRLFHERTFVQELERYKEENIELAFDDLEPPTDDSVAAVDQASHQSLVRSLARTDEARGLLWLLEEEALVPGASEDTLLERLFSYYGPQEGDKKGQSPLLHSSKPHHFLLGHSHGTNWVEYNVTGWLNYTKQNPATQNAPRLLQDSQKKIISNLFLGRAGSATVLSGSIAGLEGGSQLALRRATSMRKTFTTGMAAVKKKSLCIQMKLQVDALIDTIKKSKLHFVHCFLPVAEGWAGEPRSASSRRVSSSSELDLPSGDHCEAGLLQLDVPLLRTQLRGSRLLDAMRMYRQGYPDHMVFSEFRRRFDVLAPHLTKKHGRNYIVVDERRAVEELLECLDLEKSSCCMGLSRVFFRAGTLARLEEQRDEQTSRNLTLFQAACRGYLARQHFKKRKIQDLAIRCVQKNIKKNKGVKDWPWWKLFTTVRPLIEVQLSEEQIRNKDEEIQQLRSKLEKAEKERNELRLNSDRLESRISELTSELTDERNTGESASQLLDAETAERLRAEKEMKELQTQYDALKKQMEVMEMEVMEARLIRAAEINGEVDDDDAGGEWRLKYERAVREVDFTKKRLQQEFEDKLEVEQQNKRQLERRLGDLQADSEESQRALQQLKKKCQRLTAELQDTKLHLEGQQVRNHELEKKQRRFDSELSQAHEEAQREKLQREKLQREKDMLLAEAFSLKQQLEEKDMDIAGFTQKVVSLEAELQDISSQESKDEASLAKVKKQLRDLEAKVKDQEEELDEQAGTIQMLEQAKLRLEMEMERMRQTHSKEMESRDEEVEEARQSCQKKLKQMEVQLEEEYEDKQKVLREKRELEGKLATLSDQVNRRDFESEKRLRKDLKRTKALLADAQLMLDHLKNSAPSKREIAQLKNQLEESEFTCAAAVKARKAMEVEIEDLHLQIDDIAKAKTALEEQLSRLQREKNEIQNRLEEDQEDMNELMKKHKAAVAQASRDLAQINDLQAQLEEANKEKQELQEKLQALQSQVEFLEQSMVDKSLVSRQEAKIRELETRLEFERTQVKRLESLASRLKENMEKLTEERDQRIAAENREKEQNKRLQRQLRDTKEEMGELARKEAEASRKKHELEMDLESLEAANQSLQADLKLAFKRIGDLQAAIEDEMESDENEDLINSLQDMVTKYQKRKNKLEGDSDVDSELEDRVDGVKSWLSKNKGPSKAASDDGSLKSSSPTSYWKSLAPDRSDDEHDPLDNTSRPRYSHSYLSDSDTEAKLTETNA
UniProt Q5JRA6: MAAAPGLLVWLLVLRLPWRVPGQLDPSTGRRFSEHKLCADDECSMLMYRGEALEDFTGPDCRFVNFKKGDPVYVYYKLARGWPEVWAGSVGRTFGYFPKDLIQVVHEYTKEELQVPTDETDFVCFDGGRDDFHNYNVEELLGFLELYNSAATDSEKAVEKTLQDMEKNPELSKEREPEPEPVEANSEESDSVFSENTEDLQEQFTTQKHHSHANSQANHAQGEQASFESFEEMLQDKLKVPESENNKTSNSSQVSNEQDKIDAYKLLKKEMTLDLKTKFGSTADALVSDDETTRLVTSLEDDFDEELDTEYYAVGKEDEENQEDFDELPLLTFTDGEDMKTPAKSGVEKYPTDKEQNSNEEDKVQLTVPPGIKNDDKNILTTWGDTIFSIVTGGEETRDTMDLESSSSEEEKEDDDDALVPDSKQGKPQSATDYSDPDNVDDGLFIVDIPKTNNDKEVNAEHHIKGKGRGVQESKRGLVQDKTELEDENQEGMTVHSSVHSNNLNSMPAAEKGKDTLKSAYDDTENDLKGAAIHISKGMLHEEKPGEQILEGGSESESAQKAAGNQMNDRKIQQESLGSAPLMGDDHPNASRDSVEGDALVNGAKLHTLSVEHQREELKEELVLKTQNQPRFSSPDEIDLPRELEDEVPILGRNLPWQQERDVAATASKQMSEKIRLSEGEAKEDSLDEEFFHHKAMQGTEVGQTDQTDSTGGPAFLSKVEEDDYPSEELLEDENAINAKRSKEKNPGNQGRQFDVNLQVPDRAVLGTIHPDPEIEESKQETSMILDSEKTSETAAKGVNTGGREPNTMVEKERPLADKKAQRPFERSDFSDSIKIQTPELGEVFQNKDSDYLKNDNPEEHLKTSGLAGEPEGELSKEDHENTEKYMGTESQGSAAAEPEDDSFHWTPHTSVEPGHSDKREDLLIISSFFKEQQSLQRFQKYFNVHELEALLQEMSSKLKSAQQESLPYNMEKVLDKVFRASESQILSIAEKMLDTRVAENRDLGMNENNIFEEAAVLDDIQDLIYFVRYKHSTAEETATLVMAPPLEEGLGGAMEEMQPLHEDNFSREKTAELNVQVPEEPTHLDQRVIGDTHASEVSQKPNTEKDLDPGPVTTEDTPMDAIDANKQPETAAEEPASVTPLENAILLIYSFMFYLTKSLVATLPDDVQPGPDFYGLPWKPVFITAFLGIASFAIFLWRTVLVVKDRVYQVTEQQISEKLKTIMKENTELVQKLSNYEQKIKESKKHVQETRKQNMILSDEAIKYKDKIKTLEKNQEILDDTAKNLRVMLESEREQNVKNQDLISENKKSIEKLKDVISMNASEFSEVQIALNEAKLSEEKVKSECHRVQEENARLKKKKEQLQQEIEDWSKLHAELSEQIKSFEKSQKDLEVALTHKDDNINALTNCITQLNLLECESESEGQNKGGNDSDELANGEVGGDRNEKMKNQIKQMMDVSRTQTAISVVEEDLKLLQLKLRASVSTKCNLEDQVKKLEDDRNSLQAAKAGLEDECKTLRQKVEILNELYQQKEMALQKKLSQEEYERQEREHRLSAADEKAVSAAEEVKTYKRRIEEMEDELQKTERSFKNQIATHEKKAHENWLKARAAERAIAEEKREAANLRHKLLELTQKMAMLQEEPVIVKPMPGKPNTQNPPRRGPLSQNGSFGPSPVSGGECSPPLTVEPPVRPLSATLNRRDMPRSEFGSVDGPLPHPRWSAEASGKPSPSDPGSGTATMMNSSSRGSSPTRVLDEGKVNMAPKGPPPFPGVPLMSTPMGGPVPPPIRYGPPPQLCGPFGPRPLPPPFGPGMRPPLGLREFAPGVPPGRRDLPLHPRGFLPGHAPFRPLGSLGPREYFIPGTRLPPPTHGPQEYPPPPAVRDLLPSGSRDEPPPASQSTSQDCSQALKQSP

compound: Nc1nc2c(ncn2[C@@H]2O[C@H](COP(=O)(O)OP(=O)(O)OP(=O)(O)O)[C@@H](O)[C@H]2O)c(=O)[nH]1; experiment: dose-dependent thermal stabilisation call (2D-TPP, DLPTP, 10% FDR) (binary (1 = stabilised)); higher = stabilised by the compound; details: system: Jurkat gel-filtered lysate; concentration range 1-500 µM

| Target | dose-dependent thermal stabilisation call |
| --- | --- |
| METAP2 (UniProt P50579) | inactive: 0 |
| MIF4GD (UniProt A9UHW6) | inactive: 0 |
| METTL18 (UniProt O95568) | inactive: 0 |
| MED10 (UniProt Q9BTT4) | inactive: 0 |
| MAGED1 (UniProt Q9Y5V3) | inactive: 0 |
| MDC1 (UniProt Q14676) | inactive: 0 |
| MPHOSPH10 (UniProt O00566) | inactive: 0 |
| MAGI1 (UniProt Q96QZ7) | inactive: 0 |
| MAPK1 (UniProt P28482) | inactive: 0 |
| MYL6 (UniProt P60660) | inactive: 0 |
| MATR3 (UniProt P43243) | inactive: 0 |
| MOCS3 (UniProt O95396) | active: 1 |
| MED17 (UniProt Q9NVC6) | active: 1 |
| MLLT1 (UniProt Q03111) | inactive: 0 |
| MTMR9 (UniProt Q96QG7) | active: 1 |
| METAP1 (UniProt P53582) | inactive: 0 |
| LRRC42 (UniProt Q9Y546) | active: 1 |
| MBNL2 (UniProt Q5VZF2) | inactive: 0 |
| MAP2K4 (UniProt P45985) | active: 1 |
| LSM6 (UniProt P62312) | inactive: 0 |
| MYO18A (UniProt Q92614) | active: 1 |
| MAD2L1 (UniProt Q13257) | inactive: 0 |
| LYPLA2 (UniProt O95372) | inactive: 0 |
| MACROD1 (UniProt Q9BQ69) | inactive: 0 |
| LSM12 (UniProt Q3MHD2) | inactive: 0 |
| MRE11 (UniProt P49959) | active: 1 |
| MIA3 (UniProt Q5JRA6) | inactive: 0 |

Rewritten with tabs: entries from further up
Target	dose-dependent thermal stabilisation call
MED10 (UniProt Q9BTT4)	inactive: 0
MYL6 (UniProt P60660)	inactive: 0
